Source: PubChem BioAssay AID2685 (National Center for Advancing Translational Sciences (NCATS), 2010)
Some of the results follow. These are further read-outs of the screen, such as a control signal, another cell line or another target. No call is given for them. The list favours compounds with an active or inconclusive main result. Potencies come from curve fits of mixed quality, noted in brackets.

Experiment: qHTS Assay for Lipid Storage Modulators in Drosophila S3 Cells;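 for cell number change: cells counted by Cell Tracker Red CMTPX staining in the red channel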
Settings: BODIPY lipid droplet fluorescence, 18-24 h; for cell number change: measured here: cell count max response, cells fed with added oleic acid
Outline: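 Drosophila S3 cells loaded with oleic acid (400 uM, as added) and compounds at several concentrations; lipid droplets imaged by 488-nm laser-scanning cytometry, 500–530 nm intensity and object ratio to cell channel. Percent activity normalized to 20 uM Triacsin C.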

[1] = measured here: lipid fluorescence (Fed channel) AC50, cells fed with added oleic acid
[2] = measured here: cell number channel AC50, cells fed with added oleic acid

CC(C)(C)n1nnnc1C(c1ccc(Cl)cc1)N(Cc1cccnc1)Cc1ccco1 (centres undefined)
cell number change: -25.4% | AC50 [1]: 29.1 µM [falling, single point]

CCCCC(=O)Nc1cccc(NC(=O)c2cccnc2Cl)c1
AC50 [1]: 4.61 µM [falling, partial curve, poor fit]

Cc1ccc(N2CC(C(=O)OCC(=O)Nc3ccccc3F)CC2=O)cc1 (centres undefined)
cell number change: -114% | AC50 [2]: 20.6 µM [falling, partial curve] | AC50 [1]: 23.1 µM [falling, partial curve]

COCCN(C(=O)COC(=O)Cc1cccc2ccccc12)c1c(N)n(Cc2ccccc2)c(=O)[nH]c1=O
cell number change: 11.5%

CN(O)/C=C/C(=O)c1ccc(Br)cc1
cell number change: -19% | AC50 [1]: 0.116 µM [falling, full curve]

COc1ccc(Oc2cnn(-c3ccccc3)c(=O)c2Br)cc1
cell number change: 1.23%

CNc1nc(-c2ccccc2)cc(C)c1S(C)(=O)=O
cell number change: -35.8% | AC50 [2]: 7.31 µM [falling, partial curve, poor fit]

O=C(CSc1nc2ccccc2c(=O)n1-c1ccc(F)cc1)Nc1ccc2c(c1)CCC2
cell number change: -30.9% | AC50 [2]: 29.1 µM [falling, single point] | AC50 [1]: 29.1 µM [falling, single point]

Cc1cccc(-c2nc3ccccc3c(=O)n2NC(=O)/C=C/c2ccc([N+](=O)[O-])cc2)c1
cell number change: 23.3% | AC50 [1]: 11.6 µM [rising, partial curve, poor fit]

O=[N+]([O-])c1nn(-c2ccc3c(c2)OCCO3)n(O)c1=NC1CCCCC1
cell number change: -11.8% | AC50 [1]: 2.91 µM [rising, single point]

CCCOc1ccc(/C(O)=C2\C(=O)C(=O)N(CCCOC)C23C(=O)N(C)c2ccccc23)cc1 (centres undefined)
cell number change: 24.7% | AC50 [2]: 0.82 µM [rising, full curve, poor fit] | AC50 [1]: 29.1 µM [falling, single point]

CCn1cc(C(=O)NC(=S)Nc2cccc(O)c2)cn1
cell number change: 61.9% | AC50 [2]: 32.6 µM [rising, single point]

CCOc1ccc2nc(NS(=O)(=O)Cc3ccccc3)sc2c1
cell number change: -3.07% | AC50 [1]: 0.651 µM [rising, full curve]

CCc1nnc(NC(=O)c2ccc(S(=O)(=O)NC3CCCCC3)cc2)s1
cell number change: 93.5%

O=C(CCC1CCCCC1)Nc1ncn[nH]1
AC50 [2]: 2.59 µM [rising, partial curve]

CCNC(=S)N1CCN(c2nc(-c3ccc(F)cc3)cs2)CC1
cell number change: -29.8% | AC50 [1]: 6.51 µM [rising, single point]

COc1cc(C2Nc3ccccc3C(=O)N2c2ccccc2OC)ccc1O (centres undefined)
cell number change: 26.1% | AC50 [1]: 1.64 µM [rising, partial curve]

COc1ccc(N2CCN(C(=O)CN(Cc3ccc(Cl)cc3)S(C)(=O)=O)CC2)cc1
cell number change: 0.145% | AC50 [1]: 4.61 µM [rising, full curve, poor fit]

CCCCNc1nc2c(c(=O)n(C)c(=O)n2C)n1Cc1cccc(OC)c1
cell number change: -47% | AC50 [2]: 1.64 µM [falling, partial curve, poor fit] | AC50 [1]: 2.06 µM [falling, full curve]

Cn1nnnc1SCSc1nnnn1C
cell number change: -41.3% | AC50 [2]: 18.4 µM [falling, single point] | AC50 [1]: 25.9 µM [falling, single point]

CS(=O)(=O)N1CCN(c2cccc(Cl)n2)CC1
cell number change: 10% | AC50 [2]: 0.231 µM [falling, full curve, poor fit]

CCOC(=O)c1[nH]c(C)c(CCC(=O)O)c1C
cell number change: 18.7% | AC50 [1]: 5.8 µM [falling, single point]

O=C1Cc2ccccc2C(c2c(Cl)cccc2Cl)N1 (centres undefined)
cell number change: 13.8%

CCOc1ccc(NC(=O)CN(C)C(=O)c2cccnc2Sc2ccccc2Cl)cc1OCC
AC50 [2]: 0.103 µM [falling, full curve, poor fit]

CCCC1(CCC)C(=O)NC(=NCCc2ccc(OC)c(OC)c2)NC1=O
cell number change: 6.09%

Nc1cc(N)nc(SCC(=O)N2CCN(S(=O)(=O)c3ccccc3)CC2)n1
cell number change: -6.46% | AC50 [1]: 0.82 µM [falling, full curve, poor fit]

O=C(CN1C(=O)c2ccccc2C1=O)Nc1cccc(S(=O)(=O)Nc2ccccc2Cl)c1
cell number change: -14.3% | AC50 [1]: 0.651 µM [falling, full curve, poor fit]

Cc1ccc(C2(C)CC(C)(C)N(C(=O)CSc3nnc(C)s3)c3ccccc32)cc1 (centres undefined)
cell number change: 4.27% | AC50 [1]: 1.03 µM [falling, single point]

Cc1ccccc1Nc1nc(N)nc(CSc2nc3ccccc3s2)n1
cell number change: -33.3% | AC50 [2]: 0.731 µM [falling, partial curve, poor fit]

Cc1ccc(CNC(=O)c2ccc(CNS(=O)(=O)c3ccc4c(c3)C(C)(C)C(=O)N4C)cc2)o1
cell number change: 20.1%

COc1ccc(/C=C(\NC(=O)c2ccc(C)cc2)C(=O)NCCCn2ccnc2)cc1OC
cell number change: 1.28% | AC50 [1]: 5.17 µM [falling, single point]

CCn1c(SCC(=O)NC2CC2)nnc1-c1ccccn1
cell number change: 1.47%

Cc1ccsc1C(=O)OCC(=O)NCC1CCCO1 (centres undefined)
cell number change: -27.4% | AC50 [2]: 0.366 µM [rising, full curve] | AC50 [1]: 0.82 µM [rising, single point]

NC(=O)c1oc2ccccc2c1NC(=O)C1CC(=O)N(c2ccccc2)C1 (centres undefined)
cell number change: 38.7% | AC50 [2]: 23.1 µM [rising, single point]

O=C(Nc1ccccc1)c1cccc(N2C(=O)C3C4C=CC(C5CC45)C3C2=O)c1 (centres undefined)
AC50 [1]: 29.1 µM [falling, single point]

CC(=O)Nc1ccc(-c2cn3cccnc3n2)cc1
AC50 [2]: 3.66 µM [rising, single point]

Cc1noc(C)c1C(=O)OCC(=O)NCc1ccc(Cl)cc1
cell number change: -11.9% | AC50 [2]: 0.517 µM [falling, full curve] | AC50 [1]: 6.51 µM [falling, single point]

O=C(COc1coc(CN2CCN(c3ccccc3F)CC2)cc1=O)Nc1ccccc1
cell number change: 7.25% | AC50 [1]: 20.6 µM [rising, partial curve]

Cc1oc(-c2ccc(Cl)cc2)nc1CN1CCCC(C(=O)N2CCN(C(=O)c3ccco3)CC2)C1 (centres undefined)
cell number change: -41.3% | AC50 [2]: 13 µM [falling, partial curve, poor fit] | AC50 [1]: 16.4 µM [falling, partial curve]

CC(NC(=O)COc1ccc(Br)cc1)C(=O)O (centres undefined)
cell number change: -20.2% | AC50 [1]: 0.731 µM [falling, partial curve, poor fit]

Cc1cc(Br)c(Cl)cc1NC(=O)CN1C(=O)C2C3CC(c4ccccc4)C(C3)C2C1=O (centres undefined)
cell number change: 5.55% | AC50 [1]: 0.092 µM [rising, full curve, poor fit]

Cc1ccc(-c2[nH]nc3c2C(c2ccccc2OC(=O)N2CCOCC2)C(C#N)=C(N)O3)cc1 (centres undefined)
cell number change: 139% | AC50 [2]: 20.6 µM [rising, single point] | AC50 [1]: 29.1 µM [rising, single point]

Cc1cc(C)cc(NC(=O)COc2coc(CN3CCN(c4ccccc4)CC3)cc2=O)c1
cell number change: -26.9%

O=C(NC1CCCC1)c1ccc(Cl)c(S(=O)(=O)N2CCCCC2)c1
cell number change: 3.95%

O=C1CCCc2nc3nc4ccccc4n3cc21
cell number change: -0.517%

COCCn1c(SCCCc2ccccc2)nc2c1c(=O)[nH]c(=O)n2C
cell number change: -22.7% | AC50 [1]: 0.731 µM [rising, full curve, poor fit]

CCOc1ccc(N(CC(=O)NC2CC3CCC2C3)S(=O)(=O)c2ccc(C)cc2)cc1 (centres undefined)
cell number change: -35.5% | AC50 [2]: 32.6 µM [falling, single point]

COc1ccccc1Oc1ccc(N2CC(C(=O)OCC(=O)c3ccccc3)CC2=O)cc1 (centres undefined)
cell number change: 4.62%

O=C(O)Cc1ccccc1C(=O)O
cell number change: -163% | AC50 [2]: 29.1 µM [falling, single point]

O=C(CCc1n[nH]c(=O)[nH]c1=O)N/N=C/c1ccco1
cell number change: -8.77%

O=c1c2ccccc2nc(/C=C/c2cc(Br)ccc2O)n1CCCO
cell number change: -22.2%

Oc1ccc(N=Nc2ccccc2)o1
cell number change: -54.5% | AC50 [2]: 23.1 µM [falling, single point] | AC50 [1]: 25.9 µM [falling, partial curve]

O=C(NCc1ccc(F)cc1)C1CC(=O)N(Cc2ccco2)C1 (centres undefined)
cell number change: -0.63% | AC50 [1]: 6.51 µM [rising, single point]

COc1ccccc1-n1ccnc1SCC(=O)NC(C)(C)C
cell number change: -35.7%

O=C(CNC(=O)c1ccc(N2C(=O)c3ccccc3C2=O)cc1)OCC(=O)c1ccc(Cl)cc1
cell number change: 8.13% | AC50 [2]: 5.17 µM [falling, single point]

CCc1ccc(-c2nc(SCC(=O)NC3CCS(=O)(=O)C3)n[nH]2)cc1 (centres undefined)
cell number change: -8.64% | AC50 [2]: 0.651 µM [falling, single point]

Cc1ccccc1-c1c(C)oc2cc(O)ccc2c1=O
cell number change: -10.5%

CCOc1cc(/C=C2\C(=O)ON=C2c2ccccc2)cc(Br)c1O
cell number change: -21.7% | AC50 [1]: 16.4 µM [falling, single point]

O=C(NCc1nnnn1-c1ccc(F)c(F)c1)c1ccc2c(c1)OCO2
AC50 [1]: 6.51 µM [rising, single point]

COc1cccc(C(=O)NC(C)C(c2cccs2)N2CCOCC2)c1 (centres undefined)
cell number change: 4.25%

Cc1cccc(Nc2nc(N3CCOCC3)nc(N3CCOCC3)n2)c1
cell number change: -21.4%

Cn1nc(-c2ccc(Cl)cc2)c2cc(C(=O)N3CCN(c4ccccc4)CC3)sc21
cell number change: -14.7% | AC50 [1]: 0.164 µM [falling, full curve]

CC1CCCCC1NC(=O)c1ccc(S(=O)(=O)NCc2ccco2)cc1 (centres undefined)
AC50 [1]: 13 µM [falling, partial curve, poor fit]

Cc1cc(C)c(C(=O)COC(=O)[C@H](C)Nc2ccc(C(F)(F)F)cc2[N+](=O)[O-])c(C)c1
cell number change: -2.56% | AC50 [1]: 16.4 µM [falling, single point]
